Here are results for 40 targets from the supplement of paper PMC12819154, “High-throughput peptide-centric local stability assay extends protein–ligand identification to membrane proteins, tissues and bacteria” (Nature Structural & Molecular Biology, 2025).

The entries are a selection whose mix differs from that of the whole data set. Small differences around the control level are noise.
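Also: lysate desalted by size exclusion to strip endogenous ATP, peptide intensities built from DIA-NN precursor signals, and peptides missing any value discarded before comparison.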

Compound in the assay: Nc1ncnc2c1ncn2[C@@H]1O[C@H](COP(=O)(O)OP(=O)(O)OP(=O)(O)O)[C@@H](O)[C@H]1O [adenosine 5'-triphosphate]
Briefly: log2 fold change of tryptic peptide abundance, ligand vs vehicle (limited proteolysis) (log2 ratio); higher = more trypsin-susceptible (destabilized). The settings on record: ligand concentration: 5 mM; sample: E. coli desalted lysate; replicate design: treated before aliquoting. Here is the method:
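HT-PELSA: desalted E. coli K-12 BW25113 lysate (with 12 mM MgCl2) incubated with 5 mM ATP (pH 7) or water for 30 min at 25 C, then a 4 min trypsin pulse at 22 C. Peptides were quantified by DIA-MS (4 replicates). Value is the peptide log2 fold change (treated/control); negative = stabilized. Scale: negative = ligand-stabilized region.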
On to “UniProt P31460 (peptide sequence: NLVEPAIAR, peptide start residue: 103)”, for which the log2 fold change worked out at 0.239.
For “UniProt P37767 (peptide sequence: IRHSEALVK, peptide start residue: 271)” the value was 0.43.
To “UniProt P36645 (peptide sequence: TQQTLPVAVQEK, peptide start residue: 66)” belongs 0.145; to “UniProt P31063 (peptide sequence: EGDTLDCR, peptide start residue: 61)”, 0.494.
As for “UniProt P39176 (peptide sequence: VQIIDQPVK, peptide start residue: 228)”, the log2 fold change was -0.21.
Consider “UniProt P32719 (peptide sequence: SEVQPHAK, peptide start residue: 222)”, for which the log2 fold change is -0.4.
For “UniProt P33941 (peptide sequence: ILDTHVER, peptide start residue: 91)” the value was 0.358; for “UniProt P31828 (peptide sequence: PFLLANTR, peptide start residue: 184)”, 0.516; for “UniProt P37690 (peptide sequence: YGEQLQGELR, peptide start residue: 310)”, 1.02.
To “UniProt P37338 (peptide sequence: EALSQLVAER, peptide start residue: 45)” belongs 0.437; to “UniProt P32681 (peptide sequence: FDDRGDLSFMQR, peptide start residue: 108)”, -0.0271.
Consider “UniProt P37639 (peptide sequence: LREEETSYSQLLTECR, peptide start residue: 179)”, for which the log2 fold change is -0.35.
To “UniProt P33358 (peptide sequence: TLLVWCGENR, peptide start residue: 211)” belongs -0.422; to “UniProt P37664 (peptide sequence: HPHLMLEVYQK, peptide start residue: 97)”, 0.34; to “UniProt P39298 (peptide sequence: VIMPDAPDHGSR, peptide start residue: 57)”, -0.649.
“UniProt P38134 (peptide sequence: SVGTSLLVAR, peptide start residue: 663)”: the log2 fold change was determined as 1.09.
On to “UniProt P39212 (peptide sequence: ESAQLVVDQK, peptide start residue: 13)”, for which the log2 fold change was -0.26.
For “UniProt P37637 (peptide sequence: VYVQAGTPFR, peptide start residue: 769)” the value was 0.552; for “UniProt P37325 (peptide sequence: TFTAKPKPDAEIASLLAK, peptide start residue: 254)”, 0.375.
“UniProt P32160 (peptide sequence: YVVADNGEK, peptide start residue: 169)”: the log2 fold change amounted to 0.194.
To “UniProt P32680 (peptide sequence: LLAECEER, peptide start residue: 163)” belongs 0.206; to “UniProt P33224 (peptide sequence: VHNLAWEEDAR, peptide start residue: 100)”, 0.393; to “UniProt P32140 (peptide sequence: GLFNATVR, peptide start residue: 280)”, -0.0646.
Consider “UniProt P33590 (peptide sequence: TELQITLK, peptide start residue: 138)”, for which the log2 fold change is -0.556.
For “UniProt P36881 (peptide sequence: ETMTSSEFR, peptide start residue: 105)” the value was 0.311.
“UniProt P32718 (peptide sequence: ETLVAMTQK, peptide start residue: 257)”: the log2 fold change is -0.504.
As for “UniProt P38489 (peptide sequence: LVVDQEDADGRFATPEAK, peptide start residue: 97)”, the log2 fold change came out at 0.252.
As to “UniProt P39297 (peptide sequence: IGSVSTMVR, peptide start residue: 56)”, the log2 fold change was -0.652.
For “UniProt P33934 (peptide sequence: GVITVAATDR, peptide start residue: 214)”, the log2 fold change was found to be 0.453.
To “UniProt P32108 (peptide sequence: ATDPEIAALSDR, peptide start residue: 87)” belongs 0.254; to “UniProt P38684 (peptide sequence: DGEPIKLTR, peptide start residue: 152)”, 0.457.
For “UniProt P31467 (peptide sequence: TEAEHVYR, peptide start residue: 69)” the value was 0.595; for “UniProt P31469 (peptide sequence: NTYPDEMLK, peptide start residue: 97)”, 0.213.
For “UniProt P37645 (peptide sequence: LEGDVESR, peptide start residue: 352)” the value was -0.232; for “UniProt P33634 (peptide sequence: VGNDDALNRR, peptide start residue: 148)”, -0.445; for “UniProt P31545 (peptide sequence: VIALDSHIR, peptide start residue: 323)”, -0.44.
For the target “UniProt P31825 (peptide sequence: QFFVAHDR, peptide start residue: 17)”, the log2 fold change worked out at 0.345.
For “UniProt P37649 (peptide sequence: LLAAWQER, peptide start residue: 486)” the value was -0.508; for “UniProt P39315 (peptide sequence: AQALAAQGITVR, peptide start residue: 38)”, 0.389; for “UniProt P37348 (peptide sequence: HPQFFAK, peptide start residue: 133)”, 0.277.
